The results in this text go back to the supplement of paper PMC12067093, “Discovery and optimisation of a covalent ligand for TRIM25 and its application to targeted protein ubiquitination” (Chemical Science, 2025).

The chains behind the UniProt entries cited, without tags or fusion partners. Where a name states a change or a piece, a line headed by the entry shows the natural chain unless it says otherwise.
UniProt P35611: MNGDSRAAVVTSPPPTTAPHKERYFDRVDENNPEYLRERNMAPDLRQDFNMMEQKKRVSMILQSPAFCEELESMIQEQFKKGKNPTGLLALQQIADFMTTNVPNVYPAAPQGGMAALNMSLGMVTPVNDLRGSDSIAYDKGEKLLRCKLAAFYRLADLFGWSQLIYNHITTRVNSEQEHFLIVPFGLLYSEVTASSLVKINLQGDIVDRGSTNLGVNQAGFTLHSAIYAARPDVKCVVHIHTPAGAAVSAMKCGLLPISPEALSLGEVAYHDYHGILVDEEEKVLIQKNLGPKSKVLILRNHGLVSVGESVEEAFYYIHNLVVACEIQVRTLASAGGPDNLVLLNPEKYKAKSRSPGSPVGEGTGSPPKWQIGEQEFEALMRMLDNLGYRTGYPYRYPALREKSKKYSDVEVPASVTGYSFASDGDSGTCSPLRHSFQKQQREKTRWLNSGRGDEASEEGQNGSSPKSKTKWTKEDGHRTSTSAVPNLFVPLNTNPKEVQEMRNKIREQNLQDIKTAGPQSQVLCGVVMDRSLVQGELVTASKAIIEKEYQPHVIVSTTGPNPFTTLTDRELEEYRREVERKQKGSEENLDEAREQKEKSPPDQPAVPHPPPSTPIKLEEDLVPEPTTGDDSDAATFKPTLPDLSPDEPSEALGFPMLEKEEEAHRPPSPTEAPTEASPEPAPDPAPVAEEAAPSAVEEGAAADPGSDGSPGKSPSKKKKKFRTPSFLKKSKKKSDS
UniProt Q96EY9: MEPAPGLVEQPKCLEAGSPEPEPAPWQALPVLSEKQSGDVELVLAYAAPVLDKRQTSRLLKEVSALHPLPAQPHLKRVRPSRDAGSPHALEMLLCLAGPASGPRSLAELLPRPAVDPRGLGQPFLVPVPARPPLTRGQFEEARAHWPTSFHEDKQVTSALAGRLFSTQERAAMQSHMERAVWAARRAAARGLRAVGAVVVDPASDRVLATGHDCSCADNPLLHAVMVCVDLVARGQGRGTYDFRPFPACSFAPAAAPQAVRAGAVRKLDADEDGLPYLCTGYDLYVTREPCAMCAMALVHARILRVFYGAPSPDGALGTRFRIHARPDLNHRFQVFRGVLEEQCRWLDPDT
UniProt P54922: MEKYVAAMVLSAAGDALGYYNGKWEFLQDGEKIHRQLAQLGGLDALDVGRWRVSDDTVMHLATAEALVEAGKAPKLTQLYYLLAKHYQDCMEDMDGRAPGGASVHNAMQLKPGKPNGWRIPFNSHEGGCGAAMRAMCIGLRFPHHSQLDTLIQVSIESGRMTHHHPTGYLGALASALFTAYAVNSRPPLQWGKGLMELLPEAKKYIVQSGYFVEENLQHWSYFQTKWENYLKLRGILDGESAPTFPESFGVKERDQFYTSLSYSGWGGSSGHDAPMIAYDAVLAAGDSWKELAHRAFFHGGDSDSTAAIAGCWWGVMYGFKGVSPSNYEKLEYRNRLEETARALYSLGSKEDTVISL
UniProt Q13444: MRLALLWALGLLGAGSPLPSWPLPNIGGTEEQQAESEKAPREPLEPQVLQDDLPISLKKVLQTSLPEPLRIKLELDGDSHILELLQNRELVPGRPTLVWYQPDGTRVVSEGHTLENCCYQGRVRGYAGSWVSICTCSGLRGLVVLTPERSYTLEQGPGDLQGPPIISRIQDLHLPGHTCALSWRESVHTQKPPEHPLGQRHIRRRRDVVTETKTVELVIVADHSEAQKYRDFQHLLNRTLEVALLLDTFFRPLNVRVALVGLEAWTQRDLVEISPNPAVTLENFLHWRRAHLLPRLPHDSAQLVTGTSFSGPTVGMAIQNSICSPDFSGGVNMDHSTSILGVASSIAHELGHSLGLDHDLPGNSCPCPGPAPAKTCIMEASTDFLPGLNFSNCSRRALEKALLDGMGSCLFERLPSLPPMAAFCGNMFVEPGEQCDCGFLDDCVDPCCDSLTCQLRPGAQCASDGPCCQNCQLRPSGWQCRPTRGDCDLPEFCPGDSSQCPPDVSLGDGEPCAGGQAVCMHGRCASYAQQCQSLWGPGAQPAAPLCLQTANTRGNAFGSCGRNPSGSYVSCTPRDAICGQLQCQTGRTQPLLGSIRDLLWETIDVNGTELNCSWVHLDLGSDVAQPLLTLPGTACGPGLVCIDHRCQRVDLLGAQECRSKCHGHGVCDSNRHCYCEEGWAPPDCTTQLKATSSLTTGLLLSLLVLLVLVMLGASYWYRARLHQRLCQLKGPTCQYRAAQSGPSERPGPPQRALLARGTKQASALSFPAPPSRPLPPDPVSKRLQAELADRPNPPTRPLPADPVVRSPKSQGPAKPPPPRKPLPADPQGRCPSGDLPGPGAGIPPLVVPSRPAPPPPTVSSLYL
UniProt P78536: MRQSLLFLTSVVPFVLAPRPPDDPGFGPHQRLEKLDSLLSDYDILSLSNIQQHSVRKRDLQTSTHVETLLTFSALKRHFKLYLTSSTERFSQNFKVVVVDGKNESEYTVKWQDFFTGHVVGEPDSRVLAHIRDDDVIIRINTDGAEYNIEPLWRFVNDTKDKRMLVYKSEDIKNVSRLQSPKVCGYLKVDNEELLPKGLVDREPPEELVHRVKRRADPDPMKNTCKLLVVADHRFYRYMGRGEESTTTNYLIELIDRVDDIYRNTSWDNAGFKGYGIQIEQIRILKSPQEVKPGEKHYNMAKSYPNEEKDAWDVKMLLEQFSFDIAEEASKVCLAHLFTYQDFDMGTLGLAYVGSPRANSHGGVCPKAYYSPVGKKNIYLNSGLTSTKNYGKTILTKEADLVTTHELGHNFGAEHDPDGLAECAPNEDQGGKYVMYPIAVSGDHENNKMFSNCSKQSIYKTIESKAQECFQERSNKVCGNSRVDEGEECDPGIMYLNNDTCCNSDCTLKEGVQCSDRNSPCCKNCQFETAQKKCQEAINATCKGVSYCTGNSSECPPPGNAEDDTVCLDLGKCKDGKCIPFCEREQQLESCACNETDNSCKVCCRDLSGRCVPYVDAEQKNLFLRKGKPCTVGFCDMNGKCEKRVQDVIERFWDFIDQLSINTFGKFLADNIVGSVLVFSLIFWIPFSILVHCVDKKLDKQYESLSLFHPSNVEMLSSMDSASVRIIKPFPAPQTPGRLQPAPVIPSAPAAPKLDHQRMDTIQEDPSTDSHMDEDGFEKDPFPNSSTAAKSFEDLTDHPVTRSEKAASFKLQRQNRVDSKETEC
UniProt P55265: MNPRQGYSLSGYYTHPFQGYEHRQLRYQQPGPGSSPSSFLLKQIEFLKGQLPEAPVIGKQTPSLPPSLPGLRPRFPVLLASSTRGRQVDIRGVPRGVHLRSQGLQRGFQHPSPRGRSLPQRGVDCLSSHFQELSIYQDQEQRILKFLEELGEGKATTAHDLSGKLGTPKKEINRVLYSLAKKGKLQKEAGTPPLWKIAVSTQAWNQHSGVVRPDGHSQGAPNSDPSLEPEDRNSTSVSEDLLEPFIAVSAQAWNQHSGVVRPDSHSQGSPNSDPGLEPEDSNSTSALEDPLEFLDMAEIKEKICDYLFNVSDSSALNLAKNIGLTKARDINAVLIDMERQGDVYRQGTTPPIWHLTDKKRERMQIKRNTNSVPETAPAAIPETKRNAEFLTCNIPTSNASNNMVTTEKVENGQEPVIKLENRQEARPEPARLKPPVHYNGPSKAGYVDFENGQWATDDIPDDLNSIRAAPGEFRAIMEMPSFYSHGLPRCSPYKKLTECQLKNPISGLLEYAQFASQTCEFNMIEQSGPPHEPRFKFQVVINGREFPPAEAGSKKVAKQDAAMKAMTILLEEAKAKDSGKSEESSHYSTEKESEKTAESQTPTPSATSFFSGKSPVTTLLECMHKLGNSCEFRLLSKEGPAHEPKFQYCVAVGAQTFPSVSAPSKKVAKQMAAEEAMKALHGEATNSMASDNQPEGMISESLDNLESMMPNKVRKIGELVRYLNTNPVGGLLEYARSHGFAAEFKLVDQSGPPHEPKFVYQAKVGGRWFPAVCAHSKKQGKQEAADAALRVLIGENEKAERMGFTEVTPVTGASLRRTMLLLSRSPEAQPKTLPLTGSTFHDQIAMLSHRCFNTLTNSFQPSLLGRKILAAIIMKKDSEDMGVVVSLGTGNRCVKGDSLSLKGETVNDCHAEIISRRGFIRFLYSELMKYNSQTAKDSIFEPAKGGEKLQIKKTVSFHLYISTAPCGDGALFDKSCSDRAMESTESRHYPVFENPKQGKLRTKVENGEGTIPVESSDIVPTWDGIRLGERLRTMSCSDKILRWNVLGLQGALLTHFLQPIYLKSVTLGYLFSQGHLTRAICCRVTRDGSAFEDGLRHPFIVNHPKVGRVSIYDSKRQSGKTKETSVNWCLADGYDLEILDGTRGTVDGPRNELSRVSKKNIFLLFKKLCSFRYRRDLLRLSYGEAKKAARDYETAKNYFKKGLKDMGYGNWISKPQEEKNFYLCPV
UniProt Q16186: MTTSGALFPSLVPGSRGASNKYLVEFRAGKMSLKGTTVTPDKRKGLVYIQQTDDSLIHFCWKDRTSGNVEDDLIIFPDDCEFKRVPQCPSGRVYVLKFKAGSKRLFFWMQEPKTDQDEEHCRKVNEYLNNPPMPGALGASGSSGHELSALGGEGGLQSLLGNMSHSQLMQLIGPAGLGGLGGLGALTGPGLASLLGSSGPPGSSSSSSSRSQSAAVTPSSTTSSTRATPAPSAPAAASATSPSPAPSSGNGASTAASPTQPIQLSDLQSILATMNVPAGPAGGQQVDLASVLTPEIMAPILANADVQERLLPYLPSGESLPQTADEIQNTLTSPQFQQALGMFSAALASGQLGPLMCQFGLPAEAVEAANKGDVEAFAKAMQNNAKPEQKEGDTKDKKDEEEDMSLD
UniProt O95490: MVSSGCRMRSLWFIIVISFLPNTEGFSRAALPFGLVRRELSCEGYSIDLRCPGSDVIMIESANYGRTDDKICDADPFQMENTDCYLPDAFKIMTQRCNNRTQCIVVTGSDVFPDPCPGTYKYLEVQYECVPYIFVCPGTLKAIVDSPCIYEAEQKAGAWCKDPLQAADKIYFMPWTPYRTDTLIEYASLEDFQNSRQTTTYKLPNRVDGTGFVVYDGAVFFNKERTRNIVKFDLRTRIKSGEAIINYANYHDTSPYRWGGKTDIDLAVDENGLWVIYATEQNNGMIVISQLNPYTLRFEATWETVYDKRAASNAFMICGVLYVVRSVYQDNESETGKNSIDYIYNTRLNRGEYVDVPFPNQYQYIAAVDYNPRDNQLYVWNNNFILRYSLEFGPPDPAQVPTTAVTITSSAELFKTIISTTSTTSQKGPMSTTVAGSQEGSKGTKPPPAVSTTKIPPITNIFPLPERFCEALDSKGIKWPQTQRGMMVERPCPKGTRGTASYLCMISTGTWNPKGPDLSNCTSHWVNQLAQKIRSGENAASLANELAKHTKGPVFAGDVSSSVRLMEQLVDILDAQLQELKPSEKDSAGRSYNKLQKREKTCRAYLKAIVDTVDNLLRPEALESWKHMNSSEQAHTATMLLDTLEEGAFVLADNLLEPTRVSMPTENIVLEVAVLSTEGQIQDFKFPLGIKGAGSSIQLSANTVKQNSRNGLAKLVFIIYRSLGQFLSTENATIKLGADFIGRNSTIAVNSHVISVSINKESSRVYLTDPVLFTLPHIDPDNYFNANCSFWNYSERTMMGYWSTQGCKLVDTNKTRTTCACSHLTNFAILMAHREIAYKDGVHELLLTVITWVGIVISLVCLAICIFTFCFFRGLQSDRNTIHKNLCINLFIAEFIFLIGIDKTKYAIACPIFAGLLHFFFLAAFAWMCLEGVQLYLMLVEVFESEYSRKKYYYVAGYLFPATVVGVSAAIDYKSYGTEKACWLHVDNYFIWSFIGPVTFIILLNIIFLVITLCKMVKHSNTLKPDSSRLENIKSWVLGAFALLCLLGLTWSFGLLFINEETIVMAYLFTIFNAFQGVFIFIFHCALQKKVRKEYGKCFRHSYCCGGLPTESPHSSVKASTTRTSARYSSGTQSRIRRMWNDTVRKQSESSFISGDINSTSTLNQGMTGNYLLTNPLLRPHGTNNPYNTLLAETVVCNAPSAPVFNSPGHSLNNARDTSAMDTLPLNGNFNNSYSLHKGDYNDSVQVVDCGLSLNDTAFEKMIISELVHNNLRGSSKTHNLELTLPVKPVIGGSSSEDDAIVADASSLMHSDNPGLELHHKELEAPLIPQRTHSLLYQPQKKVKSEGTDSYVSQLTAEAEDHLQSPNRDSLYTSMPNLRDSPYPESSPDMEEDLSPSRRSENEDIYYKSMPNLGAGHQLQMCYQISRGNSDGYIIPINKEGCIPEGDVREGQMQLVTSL
UniProt P11766: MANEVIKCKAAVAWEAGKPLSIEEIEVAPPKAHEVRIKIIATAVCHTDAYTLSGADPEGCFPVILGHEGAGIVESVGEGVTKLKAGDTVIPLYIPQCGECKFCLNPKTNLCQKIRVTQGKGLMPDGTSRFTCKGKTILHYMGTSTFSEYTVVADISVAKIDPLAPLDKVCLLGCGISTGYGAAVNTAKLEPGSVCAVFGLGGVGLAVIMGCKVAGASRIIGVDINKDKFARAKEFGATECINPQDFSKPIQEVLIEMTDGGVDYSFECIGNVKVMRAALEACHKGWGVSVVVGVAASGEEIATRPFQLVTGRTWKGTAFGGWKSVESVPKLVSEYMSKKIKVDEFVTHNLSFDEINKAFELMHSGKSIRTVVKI

Compound in the experiment: CC1Cc2ccccc2N1C(=O)C1CCCN(C1)C(=O)CCl (mixture of isomers) [TRIM25 ligand 11 (diastereomer mixture)]
Put plainly: probe-labelled cysteine peptide fold change vs DMSO (competition) (log2 fold change); higher = less target engagement (more negative = stronger competition). The conditions noted are these: THP-1, incubation time: 4 h.

This is one part of the list.
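Also: competitive chemoproteomic profiling in live THP-1 cells with an iodoacetamide desthiobiotin (IA-DTB) probe, comparing probe-labelled peptide intensities in compound-treated cells against DMSO-treated controls.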

As to “ADD1_P35611_430_YSDVEVPASVTGYSFASDGDSGTCSPLR (UniProt P35611)”, the “probe-labelled cysteine peptide fold change” value (10 µM) was -0.132 and the “probe-labelled cysteine peptide fold change” value (50 µM) is -0.0653.

Consider “ACOT7_O00154_92_HCNSQNGER (UniProt O00154)”, for which the “probe-labelled cysteine peptide fold change” value was 0.0791 (10 µM) and -0.075 (50 µM).

On to “ADK_P55263_353_TGCTFPEKPDFH (UniProt P55263)”, for which the “probe-labelled cysteine peptide fold change” value (10 µM) was 0.0948 and the “probe-labelled cysteine peptide fold change” value (50 µM) came to 0.0385.

Consider “ADO_Q96SZ5_183_AEYTEASGPCILTPHR (UniProt Q96SZ5)”, for which the “probe-labelled cysteine peptide fold change” value is, setting by setting: (10 µM) -0.0417; (50 µM) 0.00492.

For the target “ADAT3_Q96EY9_95_DAGSPHALEMLLCLAGPASGPR (UniProt Q96EY9)”, the “probe-labelled cysteine peptide fold change” value by setting is: (10 µM) 0.0916; (50 µM) 0.139.

In the case of “ACSF2_Q96CM8_77_TVGQCLETTAQR (UniProt Q96CM8)”, the “probe-labelled cysteine peptide fold change” value by setting is: (10 µM) 0.00395; (50 µM) -0.106.

On to “ADPRH_P54922_90_HYQDCMEDMDGR (UniProt P54922)”, for which the “probe-labelled cysteine peptide fold change” value reads like this: (10 µM) -0.0279; (50 µM) -0.187.

On to “ACOT9_Q9Y305_128_ILEDLDSLGVLICYMHNK (UniProt Q9Y305)”, for which the “probe-labelled cysteine peptide fold change” value by setting is: (10 µM) 0.152; (50 µM) 0.0684.

On to “ACSS2_Q9NR19_246_CCIVVK (UniProt Q9NR19)”, for which the “probe-labelled cysteine peptide fold change” value was -0.0131 (10 µM) and 0.0829 (50 µM).

For the target “ADAM15_Q13444_179_IQDLHLPGHTCALSWR (UniProt Q13444)”, the “probe-labelled cysteine peptide fold change” value (10 µM) is -0.0675 and the “probe-labelled cysteine peptide fold change” value (50 µM) is 0.0443.

In the case of “ADAM17_P78536_184_VCGYLK (UniProt P78536)”, the “probe-labelled cysteine peptide fold change” value was -0.00556 (10 µM) and 0.0291 (50 µM).

In the case of “ADAR_P55265_304_ICDYLFNVSDSSALNLAK (UniProt P55265)”, the “probe-labelled cysteine peptide fold change” value is -0.131 (10 µM) and -0.238 (50 µM).

In the case of “ADAM15_Q13444_583_DAICGQLQCQTGR (UniProt Q13444)”, the “probe-labelled cysteine peptide fold change” value (10 µM) was -0.0132 and the “probe-labelled cysteine peptide fold change” value (50 µM) was 0.0611.

“ADGRA2_Q96PE1_196_VVDLGTEFLTCDCHLR (UniProt Q96PE1)”: the “probe-labelled cysteine peptide fold change” value by setting is: (10 µM) 0.18; (50 µM) 0.0792.

For the target “ADAM10_O14672_582_YGLEECTCASSDGKDDK (UniProt O14672)”, the “probe-labelled cysteine peptide fold change” value by setting is: (10 µM) 0.0616; (50 µM) 0.108.

As for “ACTN4_O43707_879_ELPPDQAEYCIAR (UniProt O43707)”, the “probe-labelled cysteine peptide fold change” value by setting is: (10 µM) -0.0365; (50 µM) -0.144.

Regarding “ADCY9_O60503_654_SEAGAEGGAPQNGCQDEHK (UniProt O60503)”, the “probe-labelled cysteine peptide fold change” value is -0.0519 (10 µM) and -0.0438 (50 µM).

For the target “ADRM1_Q16186_80_TSGNVEDDLIIFPDDCEFKR (UniProt Q16186)”, the “probe-labelled cysteine peptide fold change” value was -0.147 (10 µM) and -0.133 (50 µM).

For “ADSS_P30520_338_CGWLDLVLLK (UniProt P30520)”, the “probe-labelled cysteine peptide fold change” value stood at 0.0282 (10 µM) and 0.182 (50 µM).

For “ADRM1_Q16186_60_GLVYIQQTDDSLIHFCWK (UniProt Q16186)”, the “probe-labelled cysteine peptide fold change” value is -0.0188 (10 µM) and -0.0557 (50 µM).

Regarding “ADGRL2_O95490_160_AGAWCK (UniProt O95490)”, the “probe-labelled cysteine peptide fold change” value came out at 0.0737 (10 µM) and 0.129 (50 µM).

“ADGRL2_O95490_1250_GDYNDSVQVVDCGLSLNDTAFEK (UniProt O95490)”: the “probe-labelled cysteine peptide fold change” value was -0.287 (10 µM) and -0.21 (50 µM).

As for “ADD1_P35611_236_CVVHIHTPAGAAVSAMK (UniProt P35611)”, the “probe-labelled cysteine peptide fold change” value runs as follows: (10 µM) -0.129; (50 µM) 0.0202.

On to “ADAM17_P78536_365_ANSHGGVCPK (UniProt P78536)”, for which the “probe-labelled cysteine peptide fold change” value was -0.00526 (10 µM) and 0.139 (50 µM).

Consider “AFG3L2_Q9Y4W6_525_KLASLTPGFSGADVANVCNEAALIAAR (UniProt Q9Y4W6)”, for which the “probe-labelled cysteine peptide fold change” value by setting is: (10 µM) -0.0829; (50 µM) -0.0803.

With “ADH5_P11766_174_VCLLGCGISTGYGAAVNTAK (UniProt P11766)”, the “probe-labelled cysteine peptide fold change” value by setting is: (10 µM) 0.191; (50 µM) 0.172.

As for “ACTR2_P61160_11_KVVVCDNGTGFVK (UniProt P61160)”, the “probe-labelled cysteine peptide fold change” value is, setting by setting: (10 µM) -0.0914; (50 µM) -0.197.

In the case of “AFG3L2_Q9Y4W6_525_LASLTPGFSGADVANVCNEAALIAAR (UniProt Q9Y4W6)”, the “probe-labelled cysteine peptide fold change” value by setting is: (10 µM) -0.14; (50 µM) -0.117.

Turning to “ADH5_P11766_282_AALEACHK (UniProt P11766)”, the “probe-labelled cysteine peptide fold change” value was found to be 0.0343 (10 µM) and 0.186 (50 µM).

For the target “ADPRH_P54922_129_IPFNSHEGGCGAAMR (UniProt P54922)”, the “probe-labelled cysteine peptide fold change” value amounted to 0.14 (10 µM) and 0.126 (50 µM).

Take “ADAR_P55265_392_RNAEFLTCNIPTSNASNNMVTTEK (UniProt P55265)”: the “probe-labelled cysteine peptide fold change” value runs as follows: (10 µM) -0.033; (50 µM) -0.237.

In the case of “ACTR3_P61158_408_KDYEEIGPSICR (UniProt P61158)”, the “probe-labelled cysteine peptide fold change” value is, setting by setting: (10 µM) -0.117; (50 µM) -0.152.

In the case of “AFF3_P51826_630_TRPCGNNR (UniProt P51826)”, the “probe-labelled cysteine peptide fold change” value is, setting by setting: (10 µM) -0.087; (50 µM) 0.146.

In the case of “ACTG1_P63261_17_MEEEIAALVIDNGSGMCK (UniProt P63261)”, the “probe-labelled cysteine peptide fold change” value reads like this: (10 µM) 0.286; (50 µM) -0.0679.

Regarding “ADAT3_Q96EY9_249_GTYDFRPFPACSFAPAAAPQAVR (UniProt Q96EY9)”, the “probe-labelled cysteine peptide fold change” value came to 0.0397 (10 µM) and 0.286 (50 µM).

“ADAR_P55265_630_LGNSCEFR (UniProt P55265)”: the “probe-labelled cysteine peptide fold change” value by setting is: (10 µM) 0.0291; (50 µM) 0.029.

Consider “ACSL1_P33121_132_QVAELSECIGSALIQK (UniProt P33121)”, for which the “probe-labelled cysteine peptide fold change” value reads like this: (10 µM) -0.0785; (50 µM) 0.156.

Take “ADH5_P11766_240_EFGATECINPQDFSK (UniProt P11766)”: the “probe-labelled cysteine peptide fold change” value (10 µM) is -0.0174 and the “probe-labelled cysteine peptide fold change” value (50 µM) was -0.0498.

On to “ACTL6A_O96019_152_EKLTELMFEHYNIPAFFLCK (UniProt O96019)”, for which the “probe-labelled cysteine peptide fold change” value was -0.419 (10 µM) and -0.0964 (50 µM).

“ADAM10_O14672_173_YGPQGGCADHSVFER (UniProt O14672)”: the “probe-labelled cysteine peptide fold change” value is 0.0909 (10 µM) and 0.0721 (50 µM).

Regarding “ADAM10_O14672_632_TITLQPGSPCNDFR (UniProt O14672)”, the “probe-labelled cysteine peptide fold change” value (10 µM) was found to be 0.0426 and the “probe-labelled cysteine peptide fold change” value (50 µM) is 0.066.

“AGFG1_P52594_89_HGNEVCK (UniProt P52594)”: the “probe-labelled cysteine peptide fold change” value was determined as 0.0105 (10 µM) and 0.0833 (50 µM).

As to “ADPGK_Q9BRR6_178_VLLCGPVGPK (UniProt Q9BRR6)”, the “probe-labelled cysteine peptide fold change” value runs as follows: (10 µM) 0.114; (50 µM) 0.121.
